# Source: publication PMC5437200, “Ionic liquids for the passive sampling of sulfonamides from water—applicability and selectivity study” (Analytical and Bioanalytical Chemistry, 2017)
# Assay: PASSIL passive sampling from ultrapure water with [P666-14][N(CN)2] and PES membranes
# Settings: 14 days, initial 2 μg mL−1, 20 °C, stirred
row,SMILES,drop in concentration in the donor solution
1,"Nc1ccc(S(=O)(=O)Nc2nccs2)cc1 [STZ, sulfathiazole]",~50%
2,"Cc1ccnc(NS(=O)(=O)c2ccc(N)cc2)n1 [SMZ, sulfamerazine]",negligible
3,"Nc1ccc(S(=O)(=O)Nc2ccccn2)cc1 [SPD, sulfapyridine]",negligible

# Assay: PASSIL passive sampling from secondary effluent
# Settings: effluent samples, 7 days, [P666-14][N(CN)2], PES
row,SMILES,sampling rate (Rs)
1,"Cc1nnc(NS(=O)(=O)c2ccc(N)cc2)s1 [SMT, sulfamethiazole]",0.8 L/day
2,"COc1cc(NS(=O)(=O)c2ccc(N)cc2)nc(OC)n1 [SDX, sulfadimethoxine]",0.45 L/day
3,"Nc1ccc(S(=O)(=O)Nc2ccc(Cl)nn2)cc1 [SCP, sulfachloropyridazine]",0.59 L/day
4,"Nc1ccc(S(=O)(=O)Nc2nccs2)cc1 [STZ, sulfathiazole]",0.8 L/day
